The list is a part of this screen's results and no random one: it is rich in T/C values a quarter to a half above the control, in often repeated tests (any T/C) and in doses without a T/C. Further doses and runs are listed elsewhere. T/C is the treated group as % of the vehicle group. Some entries give survivors of the animals treated and no T/C: the source files T/C as zero there, which appears to mark a toxic dose or a test without result, not a measured value. Some doses without a T/C left all or most animals alive at the check, yet need not have been tolerated: the source hardly ever lists a survival T/C far under the control, and the zero likely stands for such cases as well. Survivors were counted at the toxicity check, usually on the fifth day, unless a day is given; later deaths do not show. Schedule codes are those of the source, read here as Q, the interval in days (D) or hours (H), X, the number of doses. Some doses were run more than once; the values are given in rising order. For survival time, the PubChem record calls one and a half times the control and up active, and a quarter to a half above the control has no call in these data; cut-offs in other NCI protocols can differ.
Test system: P388 leukemia ip, CD2F1 mice, survival T/C
Test: NCI In Vivo Anticancer Drug Screen. Data for tumor model P388 Leukemia (intraperitoneal) in CD2F1 (CDF1) mice
Conditions: T/C endpoint: median survival time, higher T/C = longer survival
[1] = dose: 100.0 mg/kg/injection, schedule: Q01DX005 (ip), vehicle: Klucel (hydroxypropylcellulose) (HPC)
[2] = dose: 200.0 mg/kg/injection, schedule: Q01DX005 (ip), vehicle: Klucel (hydroxypropylcellulose) (HPC)
[3] = dose: 100.0 mg/kg/injection, schedule: Q01DX009 (ip), vehicle: saline with Tween-80
[4] = dose: 200.0 mg/kg/injection, schedule: Q01DX009 (ip), vehicle: saline with Tween-80
[5] = dose: 100.0 mg/kg/injection, schedule: Q01DX005 (ip), vehicle: saline with Tween-80
[6] = dose: 200.0 mg/kg/injection, schedule: Q01DX005 (ip), vehicle: saline with Tween-80
[7] = dose: 50.0 mg/kg/injection, schedule: Q01DX009 (ip), vehicle: water
[8] = dose: 100.0 mg/kg/injection, schedule: Q01DX009 (ip), vehicle: water
[9] = dose: 400.0 mg/kg/injection, schedule: Q01DX009 (ip), vehicle: water
[10] = dose: 25.0 mg/kg/injection, schedule: Q01DX009 (ip), vehicle: saline with Tween-80
[11] = dose: 50.0 mg/kg/injection, schedule: Q01DX009 (ip), vehicle: saline with Tween-80

Cc1ccc2c(c1)C(=Nc1ccc(Cl)cc1)C(=O)N2
survivor count (dose: 3.75 mg/kg/injection, schedule: Q01DX005 (ip), vehicle: saline with Tween-80): 6 of 6
survivor count (dose: 7.5 mg/kg/injection, schedule: Q01DX005 (ip), vehicle: saline with Tween-80): 6 of 6
survivor count (dose: 15.0 mg/kg/injection, schedule: Q01DX005 (ip), vehicle: saline with Tween-80): 6 of 6
survivor count (dose: 30.0 mg/kg/injection, schedule: Q01DX005 (ip), vehicle: saline with Tween-80): 6 of 6
survivor count (dose: 60.0 mg/kg/injection, schedule: Q01DX005 (ip), vehicle: saline with Tween-80): 6 of 6

O=C(Nc1ccc(Cl)cc1)Nc1nnc2nc(C(C(=O)c3ccc(O)cc3O)c3nc4nnc(NC(=O)Nc5ccc(Cl)cc5)n4[nH]c3=O)c(=O)[nH]n12
survivor count (dose: 240.0 mg/kg/injection, schedule: Q01DX005 (ip), vehicle: saline with Tween-80): 6 of 6

COc1cc2c(cc1OC)[C@H]1[C@H](CO)c3ccc4c(c3CN1CC2)OCO4
survivor count [1]: 0 of 5
survivor count [2]: 0 of 5

CC1(C)COCN1COC1CCCCC1
T/C (dose: 50.0 mg/kg/injection, schedule: Q01DX009 (ip), vehicle: saline): 132 % of control
T/C (dose: 100.0 mg/kg/injection, schedule: Q01DX009 (ip), vehicle: saline): 141 % of control
T/C (dose: 150.0 mg/kg/injection, schedule: Q01DX009 (ip), vehicle: saline): 147 % of control

Cc1ccc(S(=O)(=O)C(=S)Sc2ccccc2)cc1
survivor count [3]: 1 of 6
survivor count [4]: 0 of 6

c1ccc2c(c1)[nH]c1c2c[n+]2c3c(cccc13)CCC2
T/C (dose: 12.5 mg/kg/injection, schedule: Q01DX009 (ip), vehicle: saline): 130 % of control

COC(=O)c1nc(N)nc(C(=O)OC)c1C(=O)c1ccc(OC)cc1
survivor count (dose: 240.0 mg/kg/injection, schedule: Q01DX005 (ip), vehicle: Klucel (hydroxypropylcellulose) (HPC)): 0 of 6

CC(C)=CCC(OC(=O)CC(C)(C)O)C1=CC(=O)c2c(O)ccc(O)c2C1=O (configuration not stated)
survivor count (dose: 75.0 mg/kg/injection, schedule: Q01DX005 (ip), vehicle: Klucel (hydroxypropylcellulose) (HPC)): 1 of 6
survivor count (dose: 150.0 mg/kg/injection, schedule: Q01DX005 (ip), vehicle: Klucel (hydroxypropylcellulose) (HPC)): 0 of 6

S=P(c1ccccc1)(N1CC1)N1CC1
survivor count (dose: 200.0 mg/kg/injection, schedule: Q04DX003 (ip), vehicle: saline with Tween-80): 5 of 6
survivor count (dose: 400.0 mg/kg/injection, schedule: Q04DX003 (ip), vehicle: saline with Tween-80): 3 of 6

Cc1ccccc1SSc1ccccc1C
T/C [3]: 126 % of control
survivor count [4]: 2 of 6

Cc1ccc(-c2cs/c(=N\N=C3/CSC(=O)N3Cc3ccccc3)n2-c2ccccc2)cc1
survivor count (dose: 400.0 mg/kg/injection, schedule: Q04DX002 (ip), vehicle: Klucel (hydroxypropylcellulose) (HPC)): 6 of 6

CN(C)CC(C(=O)/C=C/c1ccccc1)C(C)(C)C (configuration not stated)
survivor count (dose: 240.0 mg/kg/injection, schedule: Q01DX005 (ip), vehicle: saline): 3 of 6

COc1ccc2c3c(ccc2c1)CC1CCCN1C3 (configuration not stated)
survivor count (dose: 200.0 mg/kg/injection, schedule: Q01DX005 (ip), vehicle: other): 0 of 6

C/C(=N\NC(=S)N1CCCC1)c1nccs1
survivor count [5]: 2 of 6
survivor count [6]: 2 of 6

CC1=C(C#N)C(=O)NC1(C)O (configuration not stated)
survivor count [1]: 5 of 5

O=[N+]([O-])c1ccc(F)c(Cl)c1
survivor count (dose: 400.0 mg/kg/injection, schedule: Q04DX003 (ip), vehicle: other): 1 of 6

CC1CCC(NC(=O)N(CCCl)N=O)CC1 (configuration not stated)
T/C (dose: 1.25 mg/kg/injection, schedule: Q04DX003 (ip), vehicle: other): 126 % of control
T/C (dose: 1.88 mg/kg/injection, schedule: Q04DX003 (ip), vehicle: other): 144 % of control
T/C (dose: 2.0 mg/kg/injection, schedule: Q01DX009 (ip), vehicle: saline sonified): 137 % of control
T/C (dose: 2.5 mg/kg/injection, schedule: Q04DX003 (ip), vehicle: other): 148 % of control
survivor count (dose: 10.0 mg/kg/injection, schedule: Q04DX003 (ip), vehicle: other): 4 of 6
T/C (dose: 15.0 mg/kg/injection, schedule: Q04DX003 (ip), vehicle: saline with Tween-80): 129 % of control
survivor count (dose: 20.0 mg/kg/injection, schedule: Q04DX003 (ip), vehicle: other): 2 of 6
survivor count (dose: 30.0 mg/kg/injection, schedule: Q04DX003 (ip), vehicle: other): 0 of 6

O=C1c2ccc([N+](=O)[O-])cc2C(=O)N1CC[P+](c1ccccc1)(c1ccccc1)c1ccccc1
survivor count [7]: 2 of 6
survivor count [8]: 0 of 6
survivor count (dose: 200.0 mg/kg/injection, schedule: Q01DX009 (ip), vehicle: water): 0 of 6
survivor count [9]: 0 of 6

Cc1ccccc1-n1c(=S)n(-c2ccccn2)c2nc3ccccc3nc1/c2=N/Nc1ccccn1
survivor count [6]: 3 of 6

NC1(C(=O)O)CCCc2ccc(N(CCCl)CCCl)cc21 (configuration not stated)
T/C (dose: 2.5 mg/kg/injection, schedule: Q04DX003 (ip), vehicle: saline): 140 % of control
T/C [10]: 144 % of control
survivor count [11]: 3 of 6
survivor count (dose: 50.0 mg/kg/injection, schedule: Q04DX003 (ip), vehicle: saline with Tween-80): 5 of 6
survivor count [3]: 2 of 6

Cc1cc2nc(N(C)C)cc(N(C)C)c2cc1C
survivor count (dose: 100.0 mg/kg/injection, schedule: Q01DX009 (ip), vehicle: Klucel (hydroxypropylcellulose) (HPC)): 2 of 6
survivor count (dose: 200.0 mg/kg/injection, schedule: Q01DX009 (ip), vehicle: Klucel (hydroxypropylcellulose) (HPC)): 0 of 6

N#CCc1noc2ccccc12
survivor count [11]: 1 of 6 and 2 of 6
survivor count [3]: 0 of 6
survivor count [4]: 0 of 6

O=C1OCCC1C(=O)C(O)(C(F)(F)F)C(F)(F)F (configuration not stated)
survivor count (dose: 400.0 mg/kg/injection, schedule: Q01DX001 (ip), vehicle: other): 0 of 6

COc1cccc(O)c1O
survivor count (dose: 600.0 mg/kg/injection, schedule: Q01DX009 (ip), vehicle: saline): 1 of 6

O/N=C(/CC(c1ccccc1)N1CCOCC1)c1ccccc1 (configuration not stated)
survivor count [2]: 6 of 6

CC1(C)N=C(N)N=C(N)N1c1cccc(CCCCc2ccccc2)c1
survivor count (dose: 12.5 mg/kg/injection, schedule: Q01DX009 (ip), vehicle: saline sonified): 1 of 6
survivor count (dose: 25.0 mg/kg/injection, schedule: Q01DX009 (ip), vehicle: saline sonified): 0 of 6
survivor count (dose: 25.0 mg/kg/injection, schedule: Q04DX003 (ip), vehicle: saline sonified): 4 of 6
survivor count (dose: 50.0 mg/kg/injection, schedule: Q01DX009 (ip), vehicle: saline sonified): 1 of 6
survivor count (dose: 100.0 mg/kg/injection, schedule: Q04DX003 (ip), vehicle: saline sonified): 2 of 6

Cn1nc(-c2ccc(Cl)c(Cl)c2)[n+]([O-])c2c(=O)n(C)c(=O)nc1-2
T/C [10]: 130 and 134 % of control
survivor count [11]: 4 of 6 and 6 of 6
survivor count [3]: 1 of 6
survivor count [4]: 0 of 6

CC(C)NC(=O)OCc1c(COC(=O)NC(C)C)c(-c2ccc(Cl)c(Cl)c2)n2c1CS(=O)C2 (configuration not stated)
survivor count (dose: 25.0 mg/kg/injection, schedule: Q01DX005 (ip), vehicle: Klucel + Tween-80): 6 of 6
survivor count (dose: 50.0 mg/kg/injection, schedule: Q01DX005 (ip), vehicle: Klucel + Tween-80): 6 of 6
survivor count (dose: 100.0 mg/kg/injection, schedule: Q01DX005 (ip), vehicle: Klucel + Tween-80): 6 of 6
survivor count (dose: 200.0 mg/kg/injection, schedule: Q01DX005 (ip), vehicle: Klucel + Tween-80): 2 of 6
survivor count (dose: 400.0 mg/kg/injection, schedule: Q01DX005 (ip), vehicle: Klucel + Tween-80): 3 of 6

Cc1cccnc1Br
survivor count [7]: 6 of 6
survivor count [8]: 6 of 6
survivor count [9]: 0 of 6

CCB1OCC(C2OC(O)C3OB(CC)OC32)O1 (configuration not stated)
survivor count [5]: 6 of 6

— PubChem BioAssay AID330 (DTP/NCI, 2004)
